The list shows a part of the results. Hit calls seldom repeat between salt and free forms of one compound.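 Kinases, fused to nanoluciferase, were expressed in K562 cells; luminescence was measured every 4 h from 2 to 18 h as percent of control (DMSO = 100%, positive control = 0%). A time point is decreased if signal falls significantly (2 sigma). Hits were called by the authors by a rule that is not shown; the count of time points alone does not decide it.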
Legend:
Assay in all cases: number of time points (of 5) at which kinase-Nluc abundance scored as decreased, DMSO-normalised (count); higher = more persistent destabilization
Conditions in all cases: K562; 2-18 h
FLT3 = FLT3 (UniProt P36888)
FYN = FYN (UniProt P06241)
GSK3A = GSK3A (UniProt P49840)
HER2 = HER2 (UniProt P04626)
INSRR = INSRR (UniProt P14616)
IRAK3 = IRAK3 (UniProt Q9Y616)
JAK1 = JAK1 (UniProt P23458)
LCK = LCK (UniProt P06239)
LIMK1 = LIMK1 (UniProt P53667)
LIMK2 = LIMK2 (UniProt P53671)
LMTK2 = LMTK2 (UniProt Q8IWU2)
LYN = LYN (UniProt P07948)
MAP2K1 = MAP2K1 (UniProt Q02750)
MAP2K2 = MAP2K2 (UniProt P36507)
MAP4K2 = MAP4K2 (UniProt Q12851)
MAPK1 = MAPK1 (UniProt P28482)
MAPK4 = MAPK4 (UniProt P31152)
MAPKAPK2 = MAPKAPK2 (UniProt P49137)
MKNK1 = MKNK1 (UniProt Q9BUB5)
NTRK2 = NTRK2 (UniProt Q16620)

The chains behind the UniProt entries cited, without tags or fusion partners. Where a name states a change or a piece, a line headed by the entry shows the natural chain unless it says otherwise.
UniProt P06241, whole entry, looked up: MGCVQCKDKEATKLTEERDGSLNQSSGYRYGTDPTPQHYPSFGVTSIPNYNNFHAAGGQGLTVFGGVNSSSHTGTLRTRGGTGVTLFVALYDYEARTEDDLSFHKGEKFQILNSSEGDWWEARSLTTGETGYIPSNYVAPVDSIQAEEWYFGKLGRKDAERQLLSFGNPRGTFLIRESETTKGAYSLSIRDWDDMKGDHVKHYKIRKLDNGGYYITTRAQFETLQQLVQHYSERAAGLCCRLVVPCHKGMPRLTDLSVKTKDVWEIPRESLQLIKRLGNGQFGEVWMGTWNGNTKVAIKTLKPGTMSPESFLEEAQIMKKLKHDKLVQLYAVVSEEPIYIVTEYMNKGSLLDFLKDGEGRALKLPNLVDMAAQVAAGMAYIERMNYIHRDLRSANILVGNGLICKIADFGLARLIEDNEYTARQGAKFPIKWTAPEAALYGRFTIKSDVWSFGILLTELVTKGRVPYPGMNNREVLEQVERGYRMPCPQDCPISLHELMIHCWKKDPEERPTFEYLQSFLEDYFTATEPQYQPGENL
UniProt P49840: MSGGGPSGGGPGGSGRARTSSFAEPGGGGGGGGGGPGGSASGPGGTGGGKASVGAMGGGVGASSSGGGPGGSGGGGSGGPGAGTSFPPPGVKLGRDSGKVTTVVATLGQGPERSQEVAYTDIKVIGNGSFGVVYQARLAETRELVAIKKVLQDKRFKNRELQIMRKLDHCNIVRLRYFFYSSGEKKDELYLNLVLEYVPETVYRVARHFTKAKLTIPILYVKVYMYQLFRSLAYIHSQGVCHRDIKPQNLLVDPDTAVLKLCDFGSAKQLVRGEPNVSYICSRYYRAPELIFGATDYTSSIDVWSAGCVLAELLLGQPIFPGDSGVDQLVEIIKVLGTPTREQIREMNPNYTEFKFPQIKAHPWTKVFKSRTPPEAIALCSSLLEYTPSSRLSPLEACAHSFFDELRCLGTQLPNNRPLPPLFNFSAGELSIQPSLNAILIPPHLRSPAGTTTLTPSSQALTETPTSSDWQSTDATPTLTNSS
UniProt Q9Y616: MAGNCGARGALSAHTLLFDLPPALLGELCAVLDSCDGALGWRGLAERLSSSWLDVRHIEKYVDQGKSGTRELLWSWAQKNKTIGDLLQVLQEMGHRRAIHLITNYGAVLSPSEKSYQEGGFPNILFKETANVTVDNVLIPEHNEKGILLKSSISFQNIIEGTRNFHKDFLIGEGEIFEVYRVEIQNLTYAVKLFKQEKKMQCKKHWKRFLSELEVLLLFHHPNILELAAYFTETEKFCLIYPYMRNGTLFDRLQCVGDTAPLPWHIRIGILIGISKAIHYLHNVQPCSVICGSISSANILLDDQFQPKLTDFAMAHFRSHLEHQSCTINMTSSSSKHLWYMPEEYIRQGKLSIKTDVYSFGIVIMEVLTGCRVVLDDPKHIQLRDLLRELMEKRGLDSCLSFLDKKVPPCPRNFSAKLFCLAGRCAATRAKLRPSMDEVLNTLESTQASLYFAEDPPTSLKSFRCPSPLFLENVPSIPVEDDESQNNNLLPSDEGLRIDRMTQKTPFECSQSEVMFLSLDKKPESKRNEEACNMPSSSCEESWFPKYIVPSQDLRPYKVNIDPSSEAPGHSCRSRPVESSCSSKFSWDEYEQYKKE
UniProt P23458: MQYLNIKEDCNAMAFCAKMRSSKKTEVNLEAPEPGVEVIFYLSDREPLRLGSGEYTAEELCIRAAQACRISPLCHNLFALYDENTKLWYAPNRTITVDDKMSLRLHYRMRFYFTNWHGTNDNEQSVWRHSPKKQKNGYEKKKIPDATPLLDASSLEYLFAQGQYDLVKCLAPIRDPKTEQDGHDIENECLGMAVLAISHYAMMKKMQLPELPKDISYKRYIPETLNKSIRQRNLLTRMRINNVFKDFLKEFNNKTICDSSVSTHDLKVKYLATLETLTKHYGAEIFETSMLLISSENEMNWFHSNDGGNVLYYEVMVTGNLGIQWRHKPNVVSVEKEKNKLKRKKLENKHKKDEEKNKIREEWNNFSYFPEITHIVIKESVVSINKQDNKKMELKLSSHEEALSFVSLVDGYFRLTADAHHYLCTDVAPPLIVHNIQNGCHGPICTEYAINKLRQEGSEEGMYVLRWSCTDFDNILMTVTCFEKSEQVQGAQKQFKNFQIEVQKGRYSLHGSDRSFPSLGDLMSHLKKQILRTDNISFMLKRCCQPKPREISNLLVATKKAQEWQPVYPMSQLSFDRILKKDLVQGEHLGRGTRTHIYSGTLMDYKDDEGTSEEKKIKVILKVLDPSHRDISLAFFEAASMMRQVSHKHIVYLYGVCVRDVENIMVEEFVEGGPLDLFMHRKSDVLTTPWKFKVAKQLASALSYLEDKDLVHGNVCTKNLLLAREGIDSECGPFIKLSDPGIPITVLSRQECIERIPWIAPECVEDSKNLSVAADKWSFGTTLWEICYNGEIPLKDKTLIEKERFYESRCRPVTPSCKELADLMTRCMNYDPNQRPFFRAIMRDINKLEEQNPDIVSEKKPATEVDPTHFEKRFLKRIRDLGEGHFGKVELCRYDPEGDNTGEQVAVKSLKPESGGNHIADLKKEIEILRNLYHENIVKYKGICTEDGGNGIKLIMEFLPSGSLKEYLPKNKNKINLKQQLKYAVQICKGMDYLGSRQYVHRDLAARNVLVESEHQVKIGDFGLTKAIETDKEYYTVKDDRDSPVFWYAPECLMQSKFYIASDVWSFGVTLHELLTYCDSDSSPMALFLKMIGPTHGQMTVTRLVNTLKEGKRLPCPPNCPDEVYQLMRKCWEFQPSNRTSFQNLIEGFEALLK
UniProt Q12851: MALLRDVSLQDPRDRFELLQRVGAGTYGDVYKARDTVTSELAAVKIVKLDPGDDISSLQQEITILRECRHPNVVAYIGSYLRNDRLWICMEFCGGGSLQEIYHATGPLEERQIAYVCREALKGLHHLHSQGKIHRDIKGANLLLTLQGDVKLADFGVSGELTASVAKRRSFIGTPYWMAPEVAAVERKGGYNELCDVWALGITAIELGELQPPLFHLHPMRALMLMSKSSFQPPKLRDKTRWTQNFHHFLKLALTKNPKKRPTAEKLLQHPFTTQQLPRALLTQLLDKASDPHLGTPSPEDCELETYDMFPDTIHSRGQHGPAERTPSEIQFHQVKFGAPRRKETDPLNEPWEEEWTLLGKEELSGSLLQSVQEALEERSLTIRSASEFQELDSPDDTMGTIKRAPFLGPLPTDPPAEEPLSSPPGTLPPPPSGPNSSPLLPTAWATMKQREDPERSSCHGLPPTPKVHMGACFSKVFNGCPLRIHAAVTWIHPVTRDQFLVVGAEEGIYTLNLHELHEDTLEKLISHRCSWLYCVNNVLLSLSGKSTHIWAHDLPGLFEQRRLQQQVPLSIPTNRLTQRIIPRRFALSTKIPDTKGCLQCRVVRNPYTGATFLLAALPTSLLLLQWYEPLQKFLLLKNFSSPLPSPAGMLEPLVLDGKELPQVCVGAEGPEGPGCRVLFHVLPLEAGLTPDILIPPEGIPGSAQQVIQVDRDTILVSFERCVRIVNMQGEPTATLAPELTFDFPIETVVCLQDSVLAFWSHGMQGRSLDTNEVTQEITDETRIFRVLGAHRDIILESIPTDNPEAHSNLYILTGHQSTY
UniProt P28482, whole entry: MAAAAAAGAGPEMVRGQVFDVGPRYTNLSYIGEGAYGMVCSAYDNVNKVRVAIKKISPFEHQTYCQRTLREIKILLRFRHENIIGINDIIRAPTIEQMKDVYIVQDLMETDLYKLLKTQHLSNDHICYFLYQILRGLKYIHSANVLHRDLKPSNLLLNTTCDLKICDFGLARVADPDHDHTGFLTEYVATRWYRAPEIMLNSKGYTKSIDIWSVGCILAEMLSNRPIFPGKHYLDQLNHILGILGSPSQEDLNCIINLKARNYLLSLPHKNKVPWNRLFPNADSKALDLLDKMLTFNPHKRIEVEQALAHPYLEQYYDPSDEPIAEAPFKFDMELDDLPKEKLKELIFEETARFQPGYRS
UniProt P31152, whole entry: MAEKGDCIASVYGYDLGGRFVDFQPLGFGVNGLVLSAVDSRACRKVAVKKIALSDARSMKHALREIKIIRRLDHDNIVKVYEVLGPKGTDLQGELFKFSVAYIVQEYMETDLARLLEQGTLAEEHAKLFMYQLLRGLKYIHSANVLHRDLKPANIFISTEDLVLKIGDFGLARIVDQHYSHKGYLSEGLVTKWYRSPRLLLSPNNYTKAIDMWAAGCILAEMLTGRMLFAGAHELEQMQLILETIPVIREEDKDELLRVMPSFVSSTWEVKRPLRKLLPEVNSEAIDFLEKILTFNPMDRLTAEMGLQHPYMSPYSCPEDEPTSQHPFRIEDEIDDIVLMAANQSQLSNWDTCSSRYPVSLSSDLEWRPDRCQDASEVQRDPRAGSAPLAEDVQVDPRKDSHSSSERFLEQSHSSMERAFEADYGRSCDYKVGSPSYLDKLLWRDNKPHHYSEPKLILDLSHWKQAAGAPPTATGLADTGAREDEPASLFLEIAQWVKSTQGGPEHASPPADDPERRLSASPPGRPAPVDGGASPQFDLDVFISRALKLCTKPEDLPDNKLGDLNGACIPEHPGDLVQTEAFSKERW
UniProt P49137, whole entry, looked up: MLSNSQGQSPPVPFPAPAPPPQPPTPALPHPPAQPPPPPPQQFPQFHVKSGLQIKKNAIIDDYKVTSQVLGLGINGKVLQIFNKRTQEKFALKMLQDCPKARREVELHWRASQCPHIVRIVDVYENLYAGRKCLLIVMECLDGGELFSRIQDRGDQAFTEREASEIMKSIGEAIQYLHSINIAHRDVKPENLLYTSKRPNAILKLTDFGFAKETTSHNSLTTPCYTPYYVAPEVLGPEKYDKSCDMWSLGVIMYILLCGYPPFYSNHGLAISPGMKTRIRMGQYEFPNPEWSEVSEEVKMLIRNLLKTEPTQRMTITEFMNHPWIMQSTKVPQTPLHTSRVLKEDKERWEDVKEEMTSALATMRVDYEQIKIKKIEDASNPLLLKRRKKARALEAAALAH
UniProt Q9BUB5: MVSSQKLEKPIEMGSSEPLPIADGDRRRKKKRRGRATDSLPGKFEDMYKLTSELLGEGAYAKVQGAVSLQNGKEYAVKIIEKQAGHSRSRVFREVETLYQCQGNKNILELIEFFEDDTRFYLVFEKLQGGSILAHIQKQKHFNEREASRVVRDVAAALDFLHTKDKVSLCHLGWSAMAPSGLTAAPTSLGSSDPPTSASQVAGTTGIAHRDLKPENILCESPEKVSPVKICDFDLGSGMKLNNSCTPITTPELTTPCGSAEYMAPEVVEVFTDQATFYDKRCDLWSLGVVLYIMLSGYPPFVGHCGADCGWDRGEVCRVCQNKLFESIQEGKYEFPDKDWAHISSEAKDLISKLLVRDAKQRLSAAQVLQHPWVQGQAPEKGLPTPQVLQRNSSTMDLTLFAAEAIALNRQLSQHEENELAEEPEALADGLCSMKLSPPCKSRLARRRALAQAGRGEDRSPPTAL
UniProt Q16620, whole entry, looked up: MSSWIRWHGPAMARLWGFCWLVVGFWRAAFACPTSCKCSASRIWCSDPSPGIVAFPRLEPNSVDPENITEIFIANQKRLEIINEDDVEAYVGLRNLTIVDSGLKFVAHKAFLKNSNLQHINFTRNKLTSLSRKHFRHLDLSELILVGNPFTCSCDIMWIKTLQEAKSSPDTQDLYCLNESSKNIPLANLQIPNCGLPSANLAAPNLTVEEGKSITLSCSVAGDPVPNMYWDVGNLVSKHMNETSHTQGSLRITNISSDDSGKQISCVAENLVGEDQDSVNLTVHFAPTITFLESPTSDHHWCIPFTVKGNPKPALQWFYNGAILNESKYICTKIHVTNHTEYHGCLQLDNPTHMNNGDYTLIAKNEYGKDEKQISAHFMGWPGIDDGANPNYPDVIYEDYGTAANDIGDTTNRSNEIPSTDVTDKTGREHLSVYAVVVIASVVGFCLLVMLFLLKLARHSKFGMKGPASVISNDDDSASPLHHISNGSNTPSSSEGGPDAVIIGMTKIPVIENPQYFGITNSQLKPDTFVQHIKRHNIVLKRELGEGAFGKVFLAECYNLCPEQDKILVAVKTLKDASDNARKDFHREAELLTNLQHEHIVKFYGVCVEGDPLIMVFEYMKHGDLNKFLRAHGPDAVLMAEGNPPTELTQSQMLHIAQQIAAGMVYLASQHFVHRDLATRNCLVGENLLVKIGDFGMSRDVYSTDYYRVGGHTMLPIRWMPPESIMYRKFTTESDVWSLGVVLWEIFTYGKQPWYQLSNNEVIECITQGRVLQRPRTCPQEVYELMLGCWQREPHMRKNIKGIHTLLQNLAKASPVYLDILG

| Compound | number of time points (FLT3) | number of time points (FYN) | number of time points (GSK3A) | number of time points (HER2) | number of time points (INSRR) | number of time points (IRAK3) | number of time points (JAK1) | number of time points (LCK) | number of time points (LIMK1) | number of time points (LIMK2) | number of time points (LMTK2) | number of time points (LYN) | number of time points (MAP2K1) | number of time points (MAP2K2) | number of time points (MAP4K2) | number of time points (MAPK1) | number of time points (MAPK4) | number of time points (MAPKAPK2) | number of time points (MKNK1) | number of time points (NTRK2) |
| --- | --- | --- | --- | --- | --- | --- | --- | --- | --- | --- | --- | --- | --- | --- | --- | --- | --- | --- | --- | --- |
| O=C(Nc1ccnc(NC(=O)C2CC2)c1)c1c(Cl)cccc1Cl (10 µM) | 3 | 2 | 0 | 0 | 0 | 1 | 1 | 0 | 0 | 0 | 3 | 0 | 0 | 0 | 0 | 0 | 0 | 0 | 0 | 0 |
| CS[C@@]1(C(=O)Nc2ccc3[nH]nc(-c4ccc(OC(C)C)nc4)c3c2)CCN(CC(=O)N2CC=C(c3ccc(-c4ncn(C)n4)cc3)CC2)C1 (2.5 µM) | 0 | 0 | 0 | 0 | 0 | 0 | 0 | 0 | 0 | 0 | 0 | 0 | 0 | 0 | 0 | 0 | 0 | 0 | 0 | 0 |
| Cc1nc(Nc2cnn(C3CCNCC3)c2)nc2c1N(C)C(=O)c1cc3ccccc3cc1N2C (2.5 µM) | 0 | 0 | 0 | 0 | 0 | 0 | 0 | 0 | 0 | 0 | 0 | 0 | 0 | 0 | 0 | 0 | 0 | 0 | 0 | 0 |
| CC(C)c1cc2c(c(O)c1O)[C@@]13CCCC(C)(C)[C@@H]1C[C@@H]2OC3=O [Carnosol] (2.5 µM) | 0 | 0 | 0 | 0 | 0 | 0 | 0 | 0 | 0 | 0 | 0 | 0 | 0 | 0 | 0 | 0 | 0 | 0 | 0 | 0 |
| CCOc1cc(=O)[nH]cc1-c1ccc(CC(=O)Nc2cc(C(C)(C)C(F)(F)F)on2)c(F)c1 (10 µM) | 0 | 0 | 0 | 0 | 0 | 0 | 0 | 0 | 0 | 0 | 0 | 0 | 0 | 0 | 0 | 0 | 0 | 0 | 0 | 0 |
| C[C@@H](NC(=O)c1ncnc(N)c1Cl)c1ncc(C(=O)Nc2cc(C(F)(F)F)c(Cl)cn2)s1 (2.5 µM) | 3 | 2 | 0 | 1 | 3 | 2 | 4 | 0 | 3 | 1 | 0 | 0 | 0 | 0 | 0 | 0 | 0 | 1 | 2 | 1 |
| CO[C@@H]1[C@H](N(C)C(=O)c2ccccc2)C[C@H]2O[C@]1(C)n1c3ccccc3c3c4c(c5c6ccccc6n2c5c31)C(=O)NC4 [Midostaurin] (2.5 µM) | – | 1 | 0 | 1 | 1 | 1 | 0 | 0 | 0 | 1 | 0 | 3 | 0 | 0 | 0 | 0 | 0 | 0 | 0 | 0 |
| CN(C)C(=O)c1cc2cnc(Nc3ccc(N4CCN(CCCCNC(=O)COc5cccc6c5C(=O)N(C5CCC(=O)NC5=O)C6=O)CC4)cn3)nc2n1C1CCCC1 (stereo unspecified) (10 µM) | 0 | 0 | 0 | 0 | 0 | 0 | 0 | 0 | 0 | 0 | 0 | 0 | 0 | 0 | 0 | 0 | 0 | 0 | 0 | 0 |
| COc1cc(Nc2ccnc3ccc(Br)cc23)cc(OC)c1OC (2.5 µM) | 0 | 0 | 0 | 0 | 0 | 0 | 1 | 0 | 0 | 0 | 0 | 1 | 0 | 0 | 1 | 0 | 0 | 0 | 1 | 0 |
| CS(=O)(=O)c1ccc([C@@H](CC2CCCC2)C(=O)Nc2nccs2)cc1 (10 µM) | 0 | 0 | 0 | 0 | 0 | 0 | 0 | 0 | 0 | 0 | 0 | 0 | 0 | 0 | 0 | 0 | 0 | 0 | 0 | 0 |
| N=C(NC(=N)N1CCCC1)Nc1ccc(OC(F)(F)F)cc1 (10 µM) | 0 | 0 | 0 | 0 | 0 | 0 | 0 | 0 | 0 | 0 | 0 | 0 | 0 | 0 | 0 | 0 | 0 | 0 | 0 | 0 |
| O=C(NC[C@H](O)CO)c1ccncc1Nc1ccc(I)cc1F [Pimasertib] (10 µM) | 0 | 0 | 0 | 0 | 2 | 0 | 0 | 0 | 0 | 1 | 0 | 0 | – | 0 | 0 | 0 | 0 | 0 | 0 | 0 |
| Cc1nn(CC(F)(F)F)cc1Nc1ncc(Br)c(NCc2ccc(S(N)(=O)=O)cc2)n1 (10 µM) | 0 | 0 | 0 | 0 | 0 | 0 | 0 | 0 | 0 | 0 | 0 | 0 | 0 | 0 | 0 | 0 | 0 | 0 | 0 | 0 |
| CC(=O)O/N=C1/C(c2c(O)[nH]c3cc(Br)ccc23)=Nc2ccccc21 [BIO-acetoxime] (10 µM) | 0 | 0 | 0 | 0 | 0 | 0 | 0 | 0 | 0 | 0 | 0 | 0 | 0 | 0 | 0 | 0 | 0 | 0 | 0 | 0 |
| COc1cc2ncnc(Nc3cc(Br)c(O)c(Br)c3)c2cc1OC (2.5 µM) | 0 | 0 | 0 | 0 | 0 | 0 | 0 | 0 | 0 | 0 | 0 | 0 | 0 | 0 | 0 | 0 | 0 | 0 | 0 | 0 |
| C[C@@H]1COC(Nc2ccc3ncnc(Nc4ccc(OCc5nccs5)c(Cl)c4)c3c2)=N1 [Varlitinib] (10 µM) | 5 | 0 | 0 | 2 | 0 | 4 | – | 0 | 0 | 0 | 2 | 0 | 0 | 0 | 0 | 0 | 0 | 0 | 0 | 0 |
| CCOC(=O)c1c(Nc2ccccc2Cl)oc(/C=C2\C=Nc3ncccc32)c1O (10 µM) | 0 | – | 0 | 0 | 0 | 0 | 0 | 0 | 0 | 0 | 0 | 0 | 0 | 0 | 0 | 0 | 0 | 0 | 0 | 0 |

Limited to number of time points (LIMK1) (2 entries from above):
Compound	number of time points (LIMK1)
CCOc1cc(=O)[nH]cc1-c1ccc(CC(=O)Nc2cc(C(C)(C)C(F)(F)F)on2)c(F)c1 (10 µM)	0
C[C@@H](NC(=O)c1ncnc(N)c1Cl)c1ncc(C(=O)Nc2cc(C(F)(F)F)c(Cl)cn2)s1 (2.5 µM)	3

Source: the supplement of paper PMC12823440, “Inhibitors supercharge kinase turnover through native proteolytic circuits” (Nature, 2025)
